Non-standard residues stand in square brackets, D forms with d.
Test: general procedure: Fmoc solid-phase peptide synthesis; Rink Amide AM resin (200 mg, loading 0.4-0.8 mmol/g); scaled up: Rink Amide AM resin (5 g); HCTU/DIPEA
Conditions: whole synthesis, scale of the general procedured up 5 g resin

Row | Substance | final HPLC purity (A280, scale of the general procedure 200 mg resin) [%] | final HPLC purity (280 nm, scale of the general procedure 200 mg resin)
1 | Ac-K(Ac)K(Ac)K(Ac)W[dL]W[dL]W[dL]W-NH2 (SMILES CC(=O)NCCCC[C@H](NC(C)=O)C(=O)N[C@@H](CCCCNC(C)=O)C(=O)N[C@@H](CCCCNC(C)=O)C(=O)N[C@@H](Cc1c[nH]c2ccccc12)C(=O)N[C@H](CC(C)C)C(=O)N[C@@H](Cc1c[nH]c2ccccc12)C(=O)N[C@H](CC(C)C)C(=O)N[C@@H](Cc1c[nH]c2ccccc12)C(=O)N[C@H](CC(C)C)C(=O)N[C@@H](Cc1c[nH]c2ccccc12)C(N)=O) | >95 | –
2 | H-KKKW[dL]W[dL]W[dL]W-NH2 (SMILES CC(C)C[C@@H](NC(=O)[C@H](Cc1c[nH]c2ccccc12)NC(=O)[C@@H](CC(C)C)NC(=O)[C@H](Cc1c[nH]c2ccccc12)NC(=O)[C@@H](CC(C)C)NC(=O)[C@H](Cc1c[nH]c2ccccc12)NC(=O)[C@H](CCCCN)NC(=O)[C@H](CCCCN)NC(=O)[C@@H](N)CCCCN)C(=O)N[C@@H](Cc1c[nH]c2ccccc12)C(N)=O) | – | exceeds 95%

From patent publication US8828928B2 (President and Fellows of Harvard College, priority 2011, dated 2014)
